# PubChem BioAssay AID504808 – Drosophila RNAi Screening Center, 2011
# Purpose: 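Genes whose loss lifts activity of an E2F-responsive reporter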 (primary screen)
# Cell system: Drosophila S2 cells
# Reagent: long dsRNA against Drosophila genes
# Read-out: 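Firefly luciferase driven by E2F sites, normalised to Renilla luciferase on the same minimal promoter, measured by plate reader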
# Direction: E2F firefly: higher = more E2F reporter activity; Renilla normaliser: higher = more normaliser reporter signal
# Call rule: 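a knock-down counted as active when the firefly/Renilla E2F signal rose above 50%, a threshold chosen arbitrarily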
# The deposit covers about 21,000 reagents; shown is an unselected part of those with a known target gene and a result. Of all reagents, 18 (0.084%) got an active call. 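Raw counts without plate normalisation, one of two replicates; the ratio scores behind the calls were not deposited.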 A plus sign joins genes that one reagent is predicted to hit. Not stated in the record: the amount of reagent, the time to read-out.
The opening 4 entries as a preview:
target gene,dsRNA,"E2F firefly, rep 1","Renilla normaliser, rep 1",activity call
CG1138 (GeneID 40805),DRSC12530,1.46e5,8519,inactive
CG6294 + CG6299 + CG15642,DRSC19981,2.33e5,6713,inactive
SF1 (GeneID 43912),DRSC16844,1.10e5,5900,inactive
CG14071 (GeneID 34507),DRSC02374,1.44e5,4935,inactive

The list itself, from the start:
target gene,dsRNA,"E2F firefly, rep 1","Renilla normaliser, rep 1",activity call
CG1138 (GeneID 40805),DRSC12530,1.46e5,8519,inactive
CG6294 + CG6299 + CG15642,DRSC19981,2.33e5,6713,inactive
SF1 (GeneID 43912),DRSC16844,1.10e5,5900,inactive
CG14071 (GeneID 34507),DRSC02374,1.44e5,4935,inactive
Ttc1 (GeneID 41993),DRSC15016,94869,4696,inactive
RabX5 (GeneID 38209),DRSC08608,95231,4065,inactive
CG10211 (GeneID 35106),DRSC02027,86180,3385,inactive
Iyd (GeneID 39242),DRSC10614,99933,5352,inactive
Iyd (GeneID 39242),DRSC10615,1.03e5,6650,inactive
Ilp3 (GeneID 39151),DRSC10168,1.15e5,6448,inactive
akirin (GeneID 38821),DRSC11000,52345,3834,inactive
CG1840 (GeneID 32150),DRSC19806,7959,700,inactive
mRpL10 (GeneID 33182),DRSC00312,85199,3117,inactive
Cyp6a15Psi (GeneID 3772535),DRSC07377,1.43e5,5099,inactive
CG42336 (GeneID 36205),DRSC05273,1.25e5,5205,inactive
CG42336 (GeneID 36205),DRSC06332,1.04e5,4079,inactive
CG42336 (GeneID 36205),DRSC06333,1.09e5,4192,inactive
Tsp42Ei (GeneID 35618),DRSC06189,1.35e5,4563,inactive
CG17224 (GeneID 33510),DRSC00489,1.43e5,4932,inactive
Rpn11 (GeneID 33738),DRSC03422,94711,129,inactive
CG15046 (GeneID 32833),DRSC19622,1.45e5,5797,inactive
CG1360 (GeneID 35695),DRSC06406,1.31e5,4496,inactive
Rab6 (GeneID 34636),DRSC03404,73785,3495,inactive
Acsx4 (GeneID 42355),DRSC14311,1.31e5,7661,inactive
CheA46a (GeneID 3772338),DRSC05184,1.33e5,5603,inactive
CG3732 (GeneID 37588),DRSC04410,94800,3719,inactive
Ptth (GeneID 33238),DRSC00356,1.68e5,6260,inactive
GstE4 (GeneID 37109),DRSC06674,1.44e5,4398,inactive
CG17047 (GeneID 36478),DRSC06648,1.16e5,4925,inactive
CG13049 (GeneID 39788),DRSC09930,1.48e5,8040,inactive
DIP-alpha (GeneID 31322),DRSC17891,58985,3859,inactive
DIP-alpha (GeneID 31322),DRSC17892,71469,5141,inactive
CG13837 (GeneID 42720),DRSC14687,98275,5352,inactive
Mob4 (GeneID 35576),DRSC04993,94592,3871,inactive
CG5768 (GeneID 42915),DRSC15870,65225,3489,inactive
CG7333 (GeneID 42334),DRSC16229,1.14e5,7026,inactive
CG9784 (GeneID 32629),DRSC20210,1.44e5,6131,inactive
CG11409 (GeneID 31078),DRSC18579,1859,816,inactive
dlg1 (GeneID 32083),DRSC18895,86731,3223,inactive
dlg1 (GeneID 32083),DRSC18896,78229,2626,inactive
dlg1 (GeneID 32083),DRSC19767,1.45e5,5879,inactive
dlg1 (GeneID 32083),DRSC20324,8501,752,inactive
gukh (GeneID 53563),DRSC14768,1.39e5,6681,inactive
gukh (GeneID 53563),DRSC15806,1.47e5,7350,inactive
gukh (GeneID 53563),DRSC15944,68584,3184,inactive
lncRNA:CR32658 (GeneID 3772624),DRSC19402,1.28e5,6156,inactive
CG9380 (GeneID 38011),DRSC04549,1.24e5,4433,inactive
Dhc1 (GeneID 41171),DRSC16503,1.47e5,6547,inactive
Pgls (GeneID 32013),DRSC19769,1.36e5,6044,inactive
LysD + LysB + LysC (retired record),DRSC21249,1.40e5,6099,inactive
CG14269 (GeneID 31312),DRSC17912,1.08e5,5281,inactive
Gk2 (GeneID 38221),DRSC08610,78796,3728,inactive
Osi14 (GeneID 40770),DRSC12368,1.28e5,5369,inactive
CG2747 (GeneID 40950),DRSC15450,1.38e5,6560,inactive
CG7907 (GeneID 42539),DRSC16339,1.51e5,7741,inactive
SmydA-8 (GeneID 31200),DRSC18797,1.18e5,5668,inactive
bves (GeneID 33083),DRSC20520,1.37e5,7021,inactive
bves (GeneID 33083),DRSC20554,1.30e5,8287,inactive
bves (GeneID 33083),DRSC20555,1.29e5,6989,inactive
